Test results taken from patent US20160377635A1, “Measurement of Oxytocin and Vasopressin” (Martin-Protean LLC, priority 2013, published 2016).
Where two headings read alike, the source gives them in different places.

Legend:
[1] = cited from earlier work
[2] = plasma oxytocin and vasopressin by LC-MS/MS, with or without redox perturbation; set-up: species or system human; conditions: healthy individuals, method of the invention

CC[C@H](C)[C@@H]1NC(=O)[C@H](Cc2ccc(O)cc2)NC(=O)[C@@H](N)CSSC[C@@H](C(=O)N2CCC[C@H]2C(=O)N[C@@H](CC(C)C)C(=O)NCC(N)=O)NC(=O)[C@H](CC(N)=O)NC(=O)[C@H](CCC(N)=O)NC1=O [oxytocin]
human plasma oxytocin concentration ([1]; immunoassays on supernatant of acetone precipitation of plasma): 1 to 10 pg/mL | human plasma oxytocin concentration ([1]; immunoassays): 1 to 500 pg/mL | oxytocin detected in plasma [2]: 100-10,000 pg/mL
